Mtb heat-shock: 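Assay on Mycobacterium tuberculosis, filed only as a heat shock assay from Cornell; the read-out is not stated. The concentration is filed as 10 mM, unlikely as a test dose, so the dose is not known. The record gives no direction; compounds that gave an IC50 in retests scored well above the rest, so higher reads as stronger inhibition. Size under these conditions: about 69,000 compounds, about 930 of them at 50% or above in at least one test.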
LdMetRS: 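Methionyl-tRNA synthetase (putative), Leishmania donovani (UniProt E9BF75). Primary screen of methionyl-tRNA synthetase; the read-out is not stated. The test concentration is not given. Values are per cent inhibition. About 68,000 compounds were tested under these conditions; 0.035% (about 24) showed 50% or more at least once.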
Mtb growth Cornell: 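Whole-cell assay for inhibitors of Mycobacterium tuberculosis growth, labelled Cornell in the record; the read-out is not stated. The concentration is filed as 10 mM, unlikely as a test dose, so the dose is not known. Higher means stronger inhibition (inferred from two other growth screens of the library). About 53,000 compounds were tested under these conditions; 1.7% (about 900) showed 50% or more at least once.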

By UniProt entry, the sequences of proteins in these tests, tags left out.
UniProt E9BF75, entry or part of it: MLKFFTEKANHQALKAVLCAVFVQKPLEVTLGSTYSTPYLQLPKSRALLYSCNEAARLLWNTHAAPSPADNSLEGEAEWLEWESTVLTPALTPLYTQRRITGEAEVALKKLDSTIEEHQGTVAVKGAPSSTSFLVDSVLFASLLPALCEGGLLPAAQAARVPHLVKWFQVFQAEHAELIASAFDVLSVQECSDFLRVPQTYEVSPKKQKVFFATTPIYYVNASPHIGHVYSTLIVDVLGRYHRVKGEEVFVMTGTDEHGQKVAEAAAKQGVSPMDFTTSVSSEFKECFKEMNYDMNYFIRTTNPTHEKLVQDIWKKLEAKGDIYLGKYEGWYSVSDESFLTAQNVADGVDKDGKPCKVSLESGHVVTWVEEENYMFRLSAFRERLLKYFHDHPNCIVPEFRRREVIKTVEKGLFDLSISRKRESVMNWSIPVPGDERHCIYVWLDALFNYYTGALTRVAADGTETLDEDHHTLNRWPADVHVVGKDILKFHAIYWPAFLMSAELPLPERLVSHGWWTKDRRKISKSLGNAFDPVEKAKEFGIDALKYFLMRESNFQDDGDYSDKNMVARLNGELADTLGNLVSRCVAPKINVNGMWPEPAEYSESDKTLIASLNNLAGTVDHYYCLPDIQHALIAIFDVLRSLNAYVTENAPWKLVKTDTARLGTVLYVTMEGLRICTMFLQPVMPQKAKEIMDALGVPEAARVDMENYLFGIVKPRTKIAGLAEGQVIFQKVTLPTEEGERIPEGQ

All values are in %.
The controls that fix the scale are not given in the record; negative values are as filed.
The compounds are a random part of those screened.
A dash means the value is not listed here; it may have been measured.

| structure | Mtb heat-shock | LdMetRS | Mtb growth Cornell |
|---|---|---|---|
| `O=C(O)C(F)(F)F.[H][C@]12CCN(CCOC)[C@@]1([H])CC[C@@H](COCc1csc(C)n1)O2` | 0.3559% | - | 9.872% |
| `CCN1CC2(CCNCC2)COc2ccccc2S1(=O)=O.O=C(O)C(F)(F)F` | 13.65% | - | - |
| `O=C(c1cc(F)cc2[nH]cnc12)N1CCCC1Cn1cccn1` (stereo not shown) | 14.75% | 11.56% | - |
| `COc1cccc(CNC(C)c2ccc(-n3ccnc3)cc2)c1OC` (stereo not shown) | - | 15.66% | - |
| `CN(C)C(=O)NC1COC2(CCN(C(=O)c3ccc(Cl)cc3)CC2)C1` (stereo not shown) | 9.402% | 13.89% | - |
| `CCN(CC)CCCNC(=O)c1nn(CC)cc1Cl` | 10.08% | -25.88% | - |
| `COCCc1noc(CN(C)c2nc(C)cc(C)n2)n1` | -16.48% | 16.45% | - |
| `O=C(O)C(F)(F)F.[H][C@@]12CCCO[C@]1([H])[C@@H](Oc1ccccn1)CN2C(=O)c1ccnnc1` | -13.79% | - | 37.03% |
| `CC(C)(C)c1cnc(CN2CCCS(=O)(=O)CC2)o1` | 9.528% | 13.99% | 18.85% |
| `COc1cc(C)c(C)cc1S(=O)(=O)NCC(O)c1cccn1C` (stereo not shown) | 20.53% | 5.036% | 20.09% |
| `CCOCC1CN(CCN(C)C)Cc2cnn(CC3CCCC3)c21.O=C(O)C(F)(F)F.O=C(O)C(F)(F)F` (stereo not shown) | -7.641% | - | -9.577% |
| `Cc1sc2nc(C(F)(F)F)nc(N3CCN(C)CC3)c2c1C` | 5.845% | 12.94% | 2.216% |
| `CC(Cc1c(F)cccc1F)NC(=O)NCc1ncnn1C` (stereo not shown) | 7.718% | 5.455% | -5.568% |
| `[H][C@@]12CS(=O)(=O)C[C@]1([H])N(S(=O)(=O)c1cn(C)cn1)CCN2CC(C)C` | 2.715% | - | 1.791% |
| `Cc1nc(CN2C[C@@H]3CN(C(=O)c4cccn4C)C[C@@H]3C2=O)cs1` | - | 19.87% | - |
| `Clc1cccc(C[C@@H]2NCCC[C@@H]2Nc2cccc(Cl)c2)c1` | - | 23.62% | - |
| `CC(C)N(C)Cc1nnc2n1CCCN(S(=O)(=O)C1CC1)C2` | - | 10.73% | - |
| `Cc1cnc(N2CCOC3(CCCN(C)C3)C2)nc1.O=C(O)C(F)(F)F` (stereo not shown) | 1.448% | - | 13.85% |
| `CN(C)C(=O)c1cc2ncc(C(=O)NC3CC3)cc2n1C` | 7.4% | 16.39% | -8.617% |
| `OCC1CCCN1c1cc(NCc2cc3ccccc3o2)ncn1` (stereo not shown) | 30.68% | 23.37% | 31.55% |
| `CCNC(=O)N1CCC2(CC1)CCn1c(-c3ccccc3)cnc12` | -3.03% | 10.14% | 22.4% |
| `[H][C@@]12CS(=O)(=O)C[C@]1([H])N(Cc1cccc(C)n1)CCN2C(=O)N(C)C` | -5.683% | - | - |
| `Cn1cccc1C(=O)N1CC[C@H]2C[C@@H](c3ccncn3)O[C@@H]2C1` | - | 17.17% | - |
| `Cc1nc(C)n(CC2CCCN2Cc2nc(C3CC3)no2)n1` (stereo not shown) | -11.81% | 1.02% | - |
| `NC(=O)N1CC2(CCNCC2)c2cc(Cl)ccc21` | - | 3.704% | - |
| `Cc1cccc2c1ccn2CC(=O)NC[C@@H]1CCCN2CCCC[C@H]12` | - | 8.527% | - |
| `O[C@@H]1CN(c2cnc3ccccc3n2)CC[C@H]1c1ccc2c(c1)OCO2` | 107.1% | 7.165% | 102.9% |
| `Cc1cc(C)c(C(=O)N2CCC3(CCCN(CC(C)(C)C)C3)C2)[nH]1` (stereo not shown) | 21.51% | 11.54% | 22.08% |
| `Cc1nc2n(n1)CC(Nc1nc(-c3ccccc3)no1)CC2` (stereo not shown) | 4.618% | 8.84% | - |
| `CC(C)NC(=O)C1CCc2nnc(CNC(=O)c3ccc(Cl)cc3Cl)n21` (stereo not shown) | -19.84% | 6.857% | - |
| `CCCS(=O)(=O)NC(C)C(=O)NCc1ccc(N2CCN(C)CC2)nc1` (stereo not shown) | 0.5875% | 19.33% | - |
| `Cl.c1cnc2[nH]c(C3CCCNC3)c(CN3CCCOCC3)c2c1` (stereo not shown) | -14.8% | - | 34.89% |
| `CCc1[nH]c2ccc(CNC(=O)c3cnc(N)nc3C)cc2c1C` | -2.414% | 9.747% | 4.317% |
| `O=C(c1ccc(OCC2CC2)cc1)N1CCOCC1c1ncon1` (stereo not shown) | -25.48% | 6.407% | - |
| `CC(C)N(C)Cc1cn2c(n1)CN(Cc1ccsc1)CC2.O=C(O)C(F)(F)F.O=C(O)C(F)(F)F` | -37.9% | - | 1.22% |
| `O=C(CNc1ccc(OC2CCOC2)cc1)NCc1ccco1` (stereo not shown) | -10.98% | 14.86% | 37.67% |
| `O=C(NCc1cccnc1)C1CN(c2cnc3ccccc3n2)CCN1` (stereo not shown) | -28.02% | 11.39% | -3.459% |
| `O=C(O)C(F)(F)F.[H][C@@]12CN(CC)C[C@]1([H])[C@H](OC)CCN2C(=O)Cc1ccsc1` | -3.863% | - | 19.75% |
| `COCCN1C[C@H]2CN(Cc3cccc(OC(F)(F)F)c3)CCN2C1=O` | - | 12.03% | - |
| `Cn1cc(N2CC3(CCN(Cc4nccs4)CC3)OCC2=O)cn1` | - | 9.51% | - |

Once more, the final 2:

{"structure": "COCCN1C[C@H]2CN(Cc3cccc(OC(F)(F)F)c3)CCN2C1=O", "LdMetRS": 12.03}
{"structure": "Cn1cc(N2CC3(CCN(Cc4nccs4)CC3)OCC2=O)cn1", "LdMetRS": 9.51}

Data taken from ChEMBL document CHEMBL3988442, “University of Dundee, Small-Polar-MMV Screening Library” (2021).